Test results: patent US11040028B2, “Penicinotam derivative, preparation method and use thereof” (OCEAN UNIVERSITY OF CHINA, priority 2017, dated 2021)
Some results were stated once for a whole list of compounds, not compound by compound. At least one compound was matched to its structure with a doubt left. Some ranges recur; such a range may be that of the whole group of compounds.

How the values were obtained:
Assay type in all cases: cell-based
BHK-21 cells = test: Anti-fibrosis activity test: inhibition of BHK-21 cell proliferation (CCK-8); conditions: 48 h, CCK-8
Protocol: (§1) BHK-21 cells in exponential growth phase were selected. After the fusion growth reached 85-95%, normal passage method was utilized to digest and collect the cells, followed by cell counting and adjusting the cell density to 2×10^4 cells/mL. The cells were seeded into 96-well plates, 100 μL/well, and were incubated under the condition of 5% CO2 at 37° C.
(§2) The supernatant was removed after the cells had adhered to the wall for 24 hours. The culture solution containing the prepared compounds at different concentrations were added to the wells, 100 μL/well, each concentration in triplicate. The cells were subcultured for 48 hours after administration. Commercially available pirfenidone was employed as the positive control.
(§3) 10 μL of CCK-8 solution ( 1/10 of the volume of the culture solution) was added to each well 48 hours after the administration, and incubated for 2 hours. The absorbance (A) of each well was determined by a microplate reader at 450 nm wavelength. The inhibition rate against cell proliferation for each compound was calculated based on A, wherein inhibition rate against cell proliferation (inhibition ratio, IR)=(1−value of experimental group (Ai)/value of blank control group (Ao))×100% and the IC50 value of each compound was calculated by the data processing software.

[1] = test system: human lung fibroblasts HFL1; test: Anti-fibrosis activity test: inhibition of proliferation of human lung fibroblasts HFL1 (CCK-8); conditions: HFL1 cells, 48 h, CCK-8
Protocol: as §1, §2, §3
(§4) Using the same protocol for the cell experiments, the inhibitory activity of the test compounds against the proliferation of human lung fibroblasts HFL1, human hepatic stellate cells LX-2, human fibrosarcoma cells HT-1080, human dermal fibroblasts CCC-ESF-1, human embryonic lung fibroblast IMR-90, cardiac fibroblast RAT-iCell-C002 was assayed.

[2] = test system: human hepatic stellate cells LX-2; test: Anti-fibrosis activity test: inhibition of proliferation of human hepatic stellate cells LX-2 (CCK-8); conditions: LX-2 cells, 48 h, CCK-8
Protocol: as §1, §2, §3, §4

[3] = test system: human fibrosarcoma cells HT-1080; test: Anti-fibrosis activity test: inhibition of proliferation of human fibrosarcoma cells HT-1080 (CCK-8); conditions: HT-1080 cells, 48 h, CCK-8
Protocol: as §1, §2, §3, §4

[4] = test system: human dermal fibroblasts CCC-ESF-1; test: Anti-fibrosis activity test: inhibition of proliferation of human dermal fibroblasts CCC-ESF-1 (CCK-8); conditions: CCC-ESF-1 cells, 48 h, CCK-8
Protocol: as §1, §2, §3, §4

[5] = test system: human embryonic lung fibroblast IMR-90; test: Anti-fibrosis activity test: inhibition of proliferation of human embryonic lung fibroblast IMR-90 (CCK-8); conditions: IMR-90 cells, 48 h, CCK-8
Protocol: as §1, §2, §3, §4

[6] = test system: cardiac fibroblast RAT-iCell-C002; test: Anti-fibrosis activity test: inhibition of proliferation of cardiac fibroblast RAT-iCell-C002 (CCK-8); conditions: RAT-iCell-C002 cells, 48 h, CCK-8
Protocol: as §1, §2, §3, §4

NF-κB = test: Immunological activity test: inhibition of NF-κB activity; conditions: initial concentration of 30 μM; a/b isomers given as first/second symbol; read-out: IC50 (μM), inhibitory activity against NF-κB
From the text: Main references for immunological activity test of the compounds of the present application includes: Vogl, S.; Atanasov, A. G.; Binder, M.; Bulusu, M.; Zehl, M.; Fakhrudin, N.; Heiss, E. H.; Picker, P.; Wawrosch, C.; Saukel, J.; Reznicek, G.; Urban, E.; Bochkov, V.; Dirsch, V. M.; Kopp, B. J. Evid-Based Complementary Alern. Med. 2013, ID 395316. Commercially available parthenolide was utilized as a positive control.
The ability of the compounds of the present application to inhibit NF-κB activity was tested at an initial concentration of 30 μM.
The assay data for the compounds of the present application were further analyzed to determine their IC50 values.

[7] = test system: mouse macrophages (RAW264.7); test: Lipopolysaccharide-induced NO secretion in macrophages (Griess); conditions: RAW264.7, LPS 1 μg/ml, 24 hours, a/b isomers given as first/second symbol, read-out: IC50 (μM), inhibition of lipopolysaccharide-induced NO secretion in macrophages
Protocol: The effects of the compounds of the present application on the lipopolysaccharide-induced NO secretion in macrophage was tested Principle: Anti-inflammatory drug activity screening is to detect the inhibitory effect of compounds on NO production in the mouse macrophages (RAW264.7). When immune cells are stimulated by microbial endotoxin, inflammatory mediators, etc., a large amount of induced NO synthase (iNOS) is produced, and thus NO is generated for immune response. Accordingly, the inhibition of NO production can serve as a direct indicator of the anti-inflammatory activity of the compound. The activity of the compound to inhibit NO production at the cellular level is directly evaluated in the abovementioned test model, thereby reflecting the anti-inflammatory activity of the compound. In this experiment, the content of NO in the medium was detected by Gris kit (Molecular probes, G-7921). Macrophages (Raw264.7) were cultured in DMEM medium containing 10% fetal bovine serum, with the cell concentration adjusted. The cells were seeded in 24-well cell culture plates, cultured in an incubator, and the test samples in different concentrations were added every other day. The blank medium was used as a blank control, and commercially available indomethacin and resveratrol were employed as positive controls. After the addition of lipopolysaccharide (LPS, 1 μg/ml), incubation was performed for 24 hours. Then the supernatant culture solution was taken, to […] reagent was added, and the absorbance value was measured by a microplate reader at 548 nm. Inhibition rate=([…])×100%.

Row | Compound | IC50 (BHK-21 cells) | IC50 [1] | IC50 [2] | IC50 [3] | IC50 [4] | IC50 [5] | IC50 [6] | IC50 (NF-κB) | IC50 [7]
1 | O=C1c2c(nc3ccccc3c2OCc2ccc(-c3ccccc3)cc2)-c2cccn21 [Compound 674b] | 0.05 to 5 mM | 0.05 to 5 mM | 0.05 to 5 mM | 0.05 to 5 mM | 0.05 to 5 mM | 0.05 to 5 mM | 0.05 to 5 mM |  | 
2 | Cc1cccc2c1c(=O)c1c(n2Cc2ccc(-c3ccccc3C#N)cc2)-c2cccn2C1=O [Compound 675a] | 0.05 to 5 mM | 0.05 to 5 mM | 0.05 to 5 mM | 0.05 to 5 mM | 0.05 to 5 mM | 0.05 to 5 mM | 0.05 to 5 mM | 1 to 10 µM | 1 to 10 µM
3 | Cc1cccc2nc3c(c(OCc4ccc(-c5ccccc5C#N)cc4)c12)C(=O)n1cccc1-3 [Compound 675b] | 0.05 to 5 mM | 0.05 to 5 mM | 0.05 to 5 mM | 0.05 to 5 mM | 0.05 to 5 mM | 0.05 to 5 mM | 0.05 to 5 mM | 1 to 10 µM | 1 to 10 µM
4 | Cc1cccc2c1c(=O)c1c(n2CCF)-c2cccn2C1=O [Compound 676a] | 0.05 to 5 mM | 0.05 to 5 mM | 0.05 to 5 mM | 0.05 to 5 mM | 0.05 to 5 mM | 0.05 to 5 mM | 0.05 to 5 mM | 1 to 10 µM | 10 to 50 µM
5 | Cc1cccc2nc3c(c(OCCF)c12)C(=O)n1cccc1-3 [Compound 676b] | 0.05 to 5 mM | 0.05 to 5 mM | 0.05 to 5 mM | 0.05 to 5 mM | 0.05 to 5 mM | 0.05 to 5 mM | 0.05 to 5 mM | 1 to 10 µM | 10 to 50 µM
6 | CCOC(=O)Cn1c2c(c(=O)c3c(C)cccc31)C(=O)n1cccc1-2 [Compound 677a] | 0.05 to 5 mM | 0.05 to 5 mM | 0.05 to 5 mM | 0.05 to 5 mM | 0.05 to 5 mM | 0.05 to 5 mM | 0.05 to 5 mM | 1 to 10 µM | 1 to 10 µM
7 | CCOC(=O)COc1c2c(nc3cccc(C)c13)-c1cccn1C2=O [Compound 677b] | 0.05 to 5 mM | 0.05 to 5 mM | 0.05 to 5 mM | 0.05 to 5 mM | 0.05 to 5 mM | 0.05 to 5 mM | 0.05 to 5 mM | 1 to 10 µM | 1 to 10 µM
8 | Cc1ccc2c(=O)c3c(n(Cc4ccc(-c5ccccc5C#N)cc4)c2c1)-c1cccn1C3=O [Compound 710a] |  |  |  |  |  |  |  |  | 1 to 10 µM
9 | Cc1ccc2c(OCc3ccc(-c4ccccc4C#N)cc3)c3c(nc2c1)-c1cccn1C3=O [Compound 710b] |  |  |  |  |  |  |  |  | 1 to 10 µM
10 | Cc1cc2n(c1)C(=O)c1c-2nc2ccccc2c1O [Compound 801b, 9-hydroxy-2-methyl-0H-pyrrolizino[1,2-b]quinolin-10-one] |  | 0.05 to 5 mM | 0.05 to 5 mM | 0.05 to 5 mM | 0.05 to 5 mM | 0.05 to 5 mM | 0.05 to 5 mM |  | 
